Experiment: general procedure: Fmoc solid-phase peptide synthesis; Amide Resin (1.72 mmol/g) with Fmoc-Linker; Wang Resin; DIC, HOBt
Conditions: whole synthesis, scale of the general procedure 10 g resin

Substance	final purity (method not given) [%]
Ac-KKWVTH-NH2	99.353
Ac-KPLWHV-NH2	98.844
Ac-Lys-Arg-Tyr-Gly-Trp-NH2 (KRYGW; printed: Lys-Arg-Tyr-Gly-Trp-)	99.876
Ac-YGWKKQ-NH2	99.739
Ac-KPLWHV-OH	98.944

From US20260078144A1 (WINKEY TECHNOLOGY USA INC, priority 2023, published 2026)
